Reference: PMC11720448
These are yes or no findings as the source states them, for the method shown. Binding seen in cells or lysates may run through a third protein. Some results given as binding are weak or reduced against the parent protein; the word gives no strength.

The chains behind the UniProt entries cited, without tags or fusion partners. Where a name states a change or a piece, a line headed by the entry shows the natural chain unless it says otherwise.
UniProt P41212: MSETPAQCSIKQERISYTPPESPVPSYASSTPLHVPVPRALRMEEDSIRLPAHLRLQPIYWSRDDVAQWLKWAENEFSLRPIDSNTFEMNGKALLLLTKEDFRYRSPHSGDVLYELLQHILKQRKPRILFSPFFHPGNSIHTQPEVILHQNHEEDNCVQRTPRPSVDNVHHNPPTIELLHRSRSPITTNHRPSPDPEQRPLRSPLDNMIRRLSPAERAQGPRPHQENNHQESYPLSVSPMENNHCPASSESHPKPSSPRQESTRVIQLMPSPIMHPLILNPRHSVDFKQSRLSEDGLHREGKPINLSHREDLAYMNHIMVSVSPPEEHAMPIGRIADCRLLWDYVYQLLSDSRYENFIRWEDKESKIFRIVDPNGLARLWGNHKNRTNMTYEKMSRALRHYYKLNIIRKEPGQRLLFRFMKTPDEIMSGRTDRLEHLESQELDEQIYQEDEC
UniProt Q9UPS8: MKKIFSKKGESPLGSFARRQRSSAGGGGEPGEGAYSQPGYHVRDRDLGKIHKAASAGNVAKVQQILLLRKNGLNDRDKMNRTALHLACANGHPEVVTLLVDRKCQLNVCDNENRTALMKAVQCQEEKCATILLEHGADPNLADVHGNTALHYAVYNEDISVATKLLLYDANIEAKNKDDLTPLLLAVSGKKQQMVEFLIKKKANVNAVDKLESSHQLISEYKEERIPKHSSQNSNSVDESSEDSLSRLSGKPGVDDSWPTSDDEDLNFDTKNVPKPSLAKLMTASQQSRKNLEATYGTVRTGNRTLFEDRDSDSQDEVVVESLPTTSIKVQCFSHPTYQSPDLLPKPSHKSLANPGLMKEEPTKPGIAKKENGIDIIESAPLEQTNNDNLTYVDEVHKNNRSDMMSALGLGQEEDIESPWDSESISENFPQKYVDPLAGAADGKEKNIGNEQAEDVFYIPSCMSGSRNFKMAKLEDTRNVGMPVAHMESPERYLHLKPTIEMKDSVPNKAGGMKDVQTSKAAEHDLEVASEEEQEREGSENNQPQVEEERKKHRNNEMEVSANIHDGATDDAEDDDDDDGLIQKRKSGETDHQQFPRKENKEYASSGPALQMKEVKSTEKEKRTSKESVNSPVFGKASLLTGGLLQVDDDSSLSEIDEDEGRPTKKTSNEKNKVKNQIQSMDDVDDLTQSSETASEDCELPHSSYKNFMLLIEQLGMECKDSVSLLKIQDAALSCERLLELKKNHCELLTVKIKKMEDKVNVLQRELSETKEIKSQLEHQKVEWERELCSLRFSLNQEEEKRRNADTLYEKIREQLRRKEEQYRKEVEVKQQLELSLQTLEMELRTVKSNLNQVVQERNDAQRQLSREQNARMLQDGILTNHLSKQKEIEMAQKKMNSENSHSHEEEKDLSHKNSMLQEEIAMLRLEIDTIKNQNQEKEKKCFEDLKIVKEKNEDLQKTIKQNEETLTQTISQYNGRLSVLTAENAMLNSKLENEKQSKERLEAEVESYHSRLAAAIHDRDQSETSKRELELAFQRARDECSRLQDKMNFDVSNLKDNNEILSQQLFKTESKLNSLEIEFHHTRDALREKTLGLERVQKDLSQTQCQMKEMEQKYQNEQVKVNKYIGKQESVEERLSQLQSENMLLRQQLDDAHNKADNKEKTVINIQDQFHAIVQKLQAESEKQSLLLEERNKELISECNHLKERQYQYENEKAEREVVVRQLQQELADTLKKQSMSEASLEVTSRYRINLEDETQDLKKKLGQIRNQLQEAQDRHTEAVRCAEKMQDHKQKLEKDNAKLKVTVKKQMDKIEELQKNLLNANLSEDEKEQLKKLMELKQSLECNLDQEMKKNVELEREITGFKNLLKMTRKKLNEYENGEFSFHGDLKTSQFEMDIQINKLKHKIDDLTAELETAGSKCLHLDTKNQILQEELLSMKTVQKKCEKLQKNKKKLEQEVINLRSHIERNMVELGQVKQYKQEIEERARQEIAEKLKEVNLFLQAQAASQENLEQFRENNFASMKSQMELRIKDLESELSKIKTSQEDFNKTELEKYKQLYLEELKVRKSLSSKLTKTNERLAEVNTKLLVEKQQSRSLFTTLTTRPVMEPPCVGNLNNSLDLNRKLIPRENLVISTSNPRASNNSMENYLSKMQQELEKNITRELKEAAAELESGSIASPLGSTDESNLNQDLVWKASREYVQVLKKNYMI
UniProt Q13227: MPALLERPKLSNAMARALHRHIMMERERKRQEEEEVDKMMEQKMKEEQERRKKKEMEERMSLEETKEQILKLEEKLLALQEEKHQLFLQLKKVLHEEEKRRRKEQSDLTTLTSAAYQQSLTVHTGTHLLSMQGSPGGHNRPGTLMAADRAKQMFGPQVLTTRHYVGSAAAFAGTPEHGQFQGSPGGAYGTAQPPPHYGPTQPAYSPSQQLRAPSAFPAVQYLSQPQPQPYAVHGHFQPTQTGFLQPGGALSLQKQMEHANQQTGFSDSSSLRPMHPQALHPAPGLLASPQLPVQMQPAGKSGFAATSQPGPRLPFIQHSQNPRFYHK

Tests used:
Test in all cases: proximity ligation; HeLa cells overexpressing myc-ETV6 (wt or mutant) and FLAG-ANKRD26 alone or in combination, fixed after 48 h, Duolink In Situ Red Mouse/Rabbit kit; antibody pairs anti-ETV6 + anti-FLAG, anti-GPS2 + anti-FLAG, anti-GPS2 + anti-myc
myc-ETV6 = myc-ETV6 (UniProt P41212)
FLAG-ANKRD26 = FLAG-ANKRD26 (UniProt Q9UPS8)
myc-ETV6 W380R = myc-ETV6 W380R (UniProt P41212)
myc-ETV6 Q347P = myc-ETV6 Q347P (UniProt P41212)

Measured: binding

GPS2 (from UniProt Q13227 1-327)
binds: all assays above
